Patent publication US10456434B2, “Extracts obtained from cell line cultures from plants belonging to the Oleaceae family (e.g. Syringa vulgaris), their preparation and use” (CRODA ITALIANA S. P. A., priority 2005, dated 2019)
For at least one compound, name, drawing or mass did not settle the structure.

How the values were obtained:
[1] = Metal chelating activity (spectrophotometric), Fe2+; assay type: binding; settings: chelation equilibrium constant, calculated for a pure phenylpropanoid
Excerpt: (§1) The chelating activities of Syringa vulgaris extracts, verbascoside and isoverbascoside in relation to Fe^2+, Fe^3+, Cu^2+ and Ni^2+ metal ions has been determined by means of spectrophotometric measurements using a Shimadzu 1770 UV spectrophotometer. The activities of chelating agents depends on the association constant (equilibrium) of their reactions with the metals according to the following reaction:
(§2) [formula] wherein Keq is the equilibrium constant equal to the ratio of concentrations at equilibrium of a complex and product of equilibrium concentrations of metal ions and a chelator:
(§3) [formula] The method used for determining chelating activity is well documented in the literature (Korkina L G, Afarras'er IB. Antioxidant and chelating properties of flavonoids. Adv. Pharmacol., 1997, 38:151-63). The results are expressed as Keg (M^−1) calculated for a pure phenylpropanoid. This way the chelating activity against ferrous (Fe II), ferric (Fe III), copper (Cu II) and nickel ions has been calculated.

[2] = Metal chelating activity (spectrophotometric), Cu2+; assay type: binding; settings: chelation equilibrium constant, calculated for a pure phenylpropanoid
Excerpt: as §1, §2, §3

[3] = Hydroxyl radical scavenger activity (Fenton reaction, luminol chemiluminescence); assay type: biochemical; settings: mean of 6 independent assays
Excerpt: Syringa vulgaris Extracts 1 and 2, prepared as described in examples 1 and 2, have been used to assess in vitro antioxidant action with specific oxygen radical generating systems such as the superoxide anion (O2^−), the hydroxyl radical (HO), the peroxynitrite radical (ONOO^−) and the inhibition of lipid peroxidation. The superoxide anion has been measured by a chemiluminescent assay based on the hypoxanthine (HPX)/xanthine oxidase (XOD) reaction using the Lumimax Superoxide Anion Detection Kit (Stratagene, La Jolla, Calif., USA) and following the manufacturer's instructions. Hydroxyl radical scavenger activity has been measured by means of the Fenton reaction for the production of hydroxyl radicals and chemiluminescent dosage (using a Victor^3 chemiluminometer, Wallac, Finland) with luminol. Peroxynitrite ions have been determined by means of dosage with a spontaneous generator of peroxynitrites (3-morpholinosidnonimine hydrochloride; SIN-1) and a stable reagent for the nitroxyl ions (2-(4-carboxyphenyl)-4,4,5,5-tetramethylimidazoline-1-oxyl-3-oxide potassium salt PTIO spin trap) then dosed by means of electron spin resonance (ESR) using a. Nippon Denshi JES-FR30. […].
Extract 1 and Extract 2 listed in Table are derived from Syringa vulgaris cell cultures. In said extracts, verbascoside is present at 0.82% and 35% by weight respectively. […]

[4] = Metal chelating activity (spectrophotometric), Fe3+; assay type: binding; settings: chelation equilibrium constant, calculated for a pure phenylpropanoid
Excerpt: as §1, §2, §3

For `C[C@@H]1O[C@@H](OC[C@H]2O[C@@H](Oc3c(-c4ccc(O)c(O)c4)oc4cc(O)cc(O)c4c3=O)[C@H](O)[C@@H](O)[C@@H]2O)[C@H](O)[C@H](O)[C@H]1O` [Rutin, reference compound], the “Fe^2+ (Keq, M^−1)” value [1] was 140000 ± 40000 M⁻¹, the “Cu^2+ (Keq, M^−1)” value [2] was 110000 ± 40000 M⁻¹ and the “Hydroxyl radial (IC50)” value [3] was 3.9 µg/mL. The “Fe^3+ (Keq, M^−1)” value [4] was 160000 ± 40000 M⁻¹.
